No constants are given. Whether binding was seen depends on the method and setting. Binding seen in cells or lysates may run through a third protein. Here binding means that the protein was enriched with, or labelled near, the bait; the list need not be complete. For some assays here: A no says only that the protein was not detected with the bait. Blank lines part the entries; values can stand above or below the binder they belong to.
Legend:
[1] = molecular target: KaeA-TEV-GFP fusion (A. nidulans); assay: affinity purification with mass spectrometry; KaeA-TEV-GFP captured from mycelial extract on GFP-TrapA resin, 12 h at 4 °C, IPP 150 (10 mM HEPES pH 8.0, 150 mM NaCl), 0.1% Triton X-100, RNase cocktail; released by TEV protease; LC-MS; four biological experiments, two of them with DNase; hits absent from the untagged control strain (1)
[2] = molecular target: KaeA-TEV-GFP fusion (A. nidulans); assay: condition: only with DNase (2 U of DNase TURBO during the purification); affinity purification with mass spectrometry; as a1, the samples with 2 U of DNase TURBO added during the purification

- binding [2]: no binding
- binding [1]: binds
B2: CmkA, calcium/calmodulin-dependent protein kinase A (enzyme, UniProt Q00771 1-414)
chain: MSFANMFNKLSGQPESYEKKSLYRFGRTLGAGTYGIVREADCSSGKVAVKIILKRNVRGNERMVYDELDLLQKLNHPHIVHFVDWFESKDKFYIVTQLATGGELFDRICEYGKFTEKDASQTIRQVLDAVNYLHQRNIVHRDLKPENLLYLTRDLDSQLVLADFGIAKMLDNPAEVLTSMAGSFGYAAPEVMLKQGHGKAVDIWSLGVITYTLLCGYSPFRSENLTDLIEECRSGRVVFHERYWKDVSKDAKDFILSLLQVDPAQRPTSEEALKHPWLKGESASDRDLLPEIRAYIARSRLKRGIEIIKLANRIEALKMQEEDEEDIPSAVDVQASEASDKSGLSPFPALSTENSNTHPASTGNGESGGTKKRSLSKIARGAIFREVVLAKVREMKENEEREKVEREARERAHS

- binding [1]: binds
B4: PipA (Bud32p homologue) (protein, UniProt Q5BAB7 1-285)
chain: MPPTNRPPPFSTILSSASLPSYSSTDELTPIYQGAEAHLYKTTFLSPSQPAALKIRPSKPYRHPILDRRLTRARILQEARCLQKLVKEGVSVPALLGVDWEPSAGDGSSWLVMEWIEGEPVRVILEEWEAYLKGIEREKRLGLGEGVQGSEEEKVRGLMRRIGRAVGGLHRAGVIHGDLTTSNLMLRPLGSADTTETIEERDQSPSMAGEVVMIDFGLAMQSSQDEDRAVDLYVLERAFGSSHPRTERFFEEVLVGYRESYKGAVSALKRLEDVRMRGRKRSMIG

Continued, binder first:

B1: AN2181, a homologue of the yeast Toa2p-TFIIA small subunit (protein, UniProt Q5BB99 1-111)
chain: MSAQAYYELYRGSSLGLSLTDTLDDLINEGRIEPQLAMKILSTFDRVITEVLADKVRTRLTFKGHLDTYRFCDEVWTFLIKDVNFKLDNQQTISADKVKIVSCNSKRPGEA
- binding [1]: binds

B3: PkaR, putative protein kinase A (PKA) regulatory subunit (protein, UniProt O59922 1-412)
chain: MSNYSHSSNNPFLKVSTKEDKPSSFHKIAEDEEYEVTSPTDATFRASKNADNSAGGNNPLESGRAGESGDGIRFGRDPFGNFQGGAEGQDESSIDPNGFRPTGGPDHGFPNNYALGRRTSVSAESLNPTSAGSDSWTPPSHPKSEEQLARLKTAVSNNFLFSHLDDEQSRTVLDALVEKPIPAKDIKVISQGDAGDYFYIVEEGHFDVYINPSGSVQPGPDGAGTKISTIGPGGSFGELALMYNAPRAATIVSTEPKSTLWALDRITFRRILMDSAFQRRRMYEAFLEEVPLLSSLKPYERAKIADALDTIKFPAGEYIIKEGDPGDAFYLLESGEAEAFMEGVEEPVKSYKRGDYFGELALLDDKPRAASVRAKTEVKVAKLGRDGFKRLLGPVENIMRRTEYSSRPSTAT
- binding [1]: binds
